According to publication PMC6697747:
No constants are given. Whether binding was seen depends on the method and setting. Binding seen in cells or lysates may run through a third protein. Some entries that bind do so weakly or less than the wild type.

Protein sequences, listed by entry. Tags and fused reporters are not part of them. Lines headed by an entry give the natural chain unless they say otherwise; changes in a name come on top.
UniProt P05556: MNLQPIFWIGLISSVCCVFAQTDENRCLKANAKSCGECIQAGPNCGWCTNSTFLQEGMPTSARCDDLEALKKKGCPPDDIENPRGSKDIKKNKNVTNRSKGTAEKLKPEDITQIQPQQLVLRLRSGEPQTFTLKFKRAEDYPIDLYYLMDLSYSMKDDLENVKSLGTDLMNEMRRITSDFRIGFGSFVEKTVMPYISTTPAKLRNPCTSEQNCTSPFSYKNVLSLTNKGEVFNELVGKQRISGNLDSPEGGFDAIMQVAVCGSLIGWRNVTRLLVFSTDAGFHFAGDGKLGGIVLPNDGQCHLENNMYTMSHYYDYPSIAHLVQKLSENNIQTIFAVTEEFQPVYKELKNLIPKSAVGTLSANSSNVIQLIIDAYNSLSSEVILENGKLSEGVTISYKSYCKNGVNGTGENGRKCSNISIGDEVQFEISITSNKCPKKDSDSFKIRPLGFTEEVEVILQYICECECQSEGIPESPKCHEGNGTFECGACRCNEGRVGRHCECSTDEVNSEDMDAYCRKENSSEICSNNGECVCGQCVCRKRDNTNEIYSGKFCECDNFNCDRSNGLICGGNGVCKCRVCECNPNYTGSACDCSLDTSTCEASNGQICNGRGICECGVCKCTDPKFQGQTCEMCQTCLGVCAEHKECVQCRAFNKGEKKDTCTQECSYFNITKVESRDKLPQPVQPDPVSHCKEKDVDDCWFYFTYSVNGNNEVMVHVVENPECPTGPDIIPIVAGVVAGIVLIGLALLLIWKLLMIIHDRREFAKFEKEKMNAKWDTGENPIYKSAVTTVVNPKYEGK

Molecular target: Neuropilin-1 wild type (NRP1-WT) (human) (UniProt O14786)
Experiment: co-IP; HT29 cells with stable expression of NRP1-WT, NRP1-ΔE4 or NRP1-ΔE5 lysed in RIPA buffer; 500 µg lysate protein immunoprecipitated with 2 µg NRP1 antibody (IgG as control) overnight, protein G sepharose 3 h at 4 °C; western blot, densitometry

β1-integrin (from UniProt P05556 21-798) (receptor)
binding: binds
